Record: PubChem BioAssay AID504793 (Drosophila RNAi Screening Center, 2011)
The screen tested about 23,000 reagents; below is a random part of those with a known target gene and a result. Over the whole deposit, 62 (0.27%) are marked active. 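Calls come from follow-up tests whose scores are not deposited, so confirmed genes may have low counts here; counts are not normalised per plate.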 Raw values are not corrected between plates. Unmarked entries are inactive. Names joined by + are all predicted targets of the reagent. Reagent sequences are not shown.

Aim: 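Genes required for cells to halt at G2/M after double-strand DNA breaks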 (primary screen)
Cell system: Drosophila S2R+ cells
Knock-down reagent: long dsRNA against Drosophila genes, about 0.25 µg dsRNA per well
Duration: 4 days of dsRNA, then 4 hours of drug before read-out
Challenge: doxorubicin 0.5 µM for 4 hours to cause double-strand breaks, in cells also given a low, harmless dose of dsRNA against nbs to sensitise the assay
Measured: 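Per-well count of mitotic cells stained for phospho-histone H3 after doxorubicin exposure, used as mitotic index; counts are raw and not normalised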
Direction: mitotic cells: higher = more cells in mitosis, weaker G2 arrest
Call rule: 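a call needs confirmation in secondary tests, with other dsRNAs and a check of mitotic timing without damage, not just a high primary count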
Calls: active = confirmed in follow-up tests; inactive = not confirmed

gene,dsRNA,"mitotic cells, replicate 1"
Khc-73 (GeneID 36718),DRSC07449,5
Khc-73 (GeneID 36718),DRSC26819,9
ND-ACP (GeneID 38154),DRSC08724,8
CG14125 (GeneID 39359),DRSC10129,3
CG13398 (GeneID 34169),DRSC02268,7
Cyp4p1 (GeneID 45524),DRSC07372,3
Cyp4p1 (GeneID 45524),DRSC26036,1
CG14332 (GeneID 42098),DRSC14811,9
fz3 (GeneID 31023),DRSC18779,15
fz3 (GeneID 31023),DRSC29682,5
Had1 (GeneID 32592),DRSC20216,13
slo (GeneID 42940),DRSC17057,8
mkg-p + Tpt,DRSC10777,10
AdamTS-A (GeneID 41887),DRSC14992,4
AdamTS-A (GeneID 41887),DRSC15966,5
Pus1 (GeneID 42440),DRSC15548,11
Pus1 (GeneID 42440),DRSC27461,4
CR14033 (GeneID 10178827),DRSC02358,3
CR14033 (GeneID 10178827),DRSC24988,5
CG10183 (GeneID 42782),DRSC14203,12
CG10183 (GeneID 42782),DRSC25343,5
CG17528 (GeneID 3355134),DRSC07761,13
NimB4 (GeneID 34814),DRSC01884,9
NimB4 (GeneID 34814),DRSC24265,4
CG13926 (GeneID 38192),DRSC08395,7
CG13807 (GeneID 38290),DRSC08342,10
CG13807 (GeneID 38290),DRSC28816,5
Fas1 (GeneID 42025),DRSC16669,6
CG4650 (GeneID 34859),DRSC02767,6
Oamb (GeneID 43982),DRSC13433,10
Oamb (GeneID 43982),DRSC15120,4
Oamb (GeneID 43982),DRSC16763,11
CG33267 (GeneID 2768969),DRSC09120,5
Atg18a (GeneID 38913),DRSC10943,5
mts (GeneID 45959),DRSC03574,52
CG8478 (GeneID 41194),DRSC16427,3
Spt6 (GeneID 44000),DRSC18836,5
CG4480 (GeneID 34864),DRSC02750,5
SkpD (GeneID 32995),DRSC22208,6
Ube4B (GeneID 34699),DRSC03277,5
Lcp3 (GeneID 35819),DRSC07457,5
Lcp3 (GeneID 35819),DRSC25185,3
CG30385 (GeneID 246585),DRSC06031,7
CG14483 (GeneID 36995),DRSC06455,8
CG7556 (GeneID 32902),DRSC20052,10
CG7556 (GeneID 32902),DRSC26701,8

Laid out differently: entries from further up.
{"gene":"CG13926 (GeneID 38192)","dsRNA":"DRSC08395","mitotic cells, replicate 1":7}
{"gene":"CG13807 (GeneID 38290)","dsRNA":"DRSC08342","mitotic cells, replicate 1":10}
{"gene":"CG13807 (GeneID 38290)","dsRNA":"DRSC28816","mitotic cells, replicate 1":5}
{"gene":"Fas1 (GeneID 42025)","dsRNA":"DRSC16669","mitotic cells, replicate 1":6}
{"gene":"CG4650 (GeneID 34859)","dsRNA":"DRSC02767","mitotic cells, replicate 1":6}
